# Assay results taken from PubChem BioAssay AID2685 (National Center for Advancing Translational Sciences (NCATS), 2010).
# The list shows a part of the results. Shown are side measurements of this screen, not its main read-out; they come without a call. Most of these compounds were active or inconclusive in the main read-out, so they are no random draw. Potencies come from curve fits of mixed quality, noted in brackets.
# Assay: qHTS Assay for Lipid Storage Modulators in Drosophila S3 Cells;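 as to cell number change: cells counted by Cell Tracker Red CMTPX staining in the red channel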
# Details: BODIPY lipid droplet fluorescence, 18-24 h; for cell number change: measured here: cell count max response, cells fed with added oleic acid
# In short: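 Drosophila S3 cells got compounds at several concentrations plus oleic acid (400 uM solution). Laser-scanning cytometry with 488 nm excitation read lipid droplets at 500-530 nm and cells at 575-640 nm. Percent activity was relative to 20 uM Triacsin C.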
# [1] = measured here: lipid fluorescence (Fed channel) AC50, cells fed with added oleic acid
# [2] = measured here: cell number channel AC50, cells fed with added oleic acid
Structure (SMILES),cell number change [%],AC50 [1],AC50 [2]
NS(=O)(=O)c1ccc(NC(=S)N2CCCC2)cc1,13.5,"0.651 µM [rising, partial curve, poor fit]",
Cc1sc2nc(CN3CCCC3)nc(N3CCN(C(=O)c4ccco4)CC3)c2c1C,,"1.84 µM [rising, single point]",
O=C(O)CCCC(=O)N1CCc2cc(S(=O)(=O)NCc3ccccc3)ccc21,,"18.4 µM [rising, single point]",
O=C(/C=C/c1cccc(Cl)c1)c1nc2ccccc2[nH]1,-60.5,"5.8 µM [falling, full curve]","7.31 µM [falling, partial curve]"
CCCCCCOc1ccc(/C(C)=N/NC2=NCCN2)cc1,-35.6,"16.4 µM [falling, single point]","29.1 µM [falling, single point]"
COc1ccccc1C(=O)NCC(=O)Nc1cccnc1,-33.7,"6.51 µM [rising, partial curve, poor fit]",
Cc1ccc(NC(=O)CCc2nc3ccccc3s2)c(O)c1,,,"0.00461 µM [rising, full curve, poor fit]"
CC(C)(C)[C@H]1C=C(C(=O)N2CCOCC2)O[C@@H](OCCCCO)C1,18.1,,"0.058 µM [rising, full curve, poor fit]"
CC1CCN(CC(O)COc2ccc(-c3ccccc3)cc2)CC1 (configuration not stated),5.87,"29.1 µM [falling, single point]",
CCN(CC)C(=O)Cn1cc(C(=O)C(=O)NCCc2c[nH]c3ccccc23)c2ccccc21,4.59,"0.058 µM [rising, full curve, poor fit]",
Cc1nc(/N=C(\N)NC(=O)N2c3ccccc3Sc3ccccc32)nc2ccccc12,,"0.461 µM [rising, single point]",
Brc1ccc2[nH]c3c(N4CCc5ccccc5C4)ncnc3c2c1,-88.5,"29.1 µM [falling, single point]","20.6 µM [falling, partial curve]"
O=C(CN(C(=O)CNC(=O)c1cccs1)c1ccccc1)NC1CCCCC1,5.65,,
CCN(CC(=O)Nc1c(F)cccc1F)C(=O)CNC(=O)c1ccc2c(c1)OCO2,,"3.26 µM [falling, single point]",
CCCc1cc(C(=O)NNC(=S)Nc2cccc(C)c2)cs1,-18.9,"1.3 µM [rising, full curve]",
Cc1cc(C)c(NC(=O)COC(=O)c2cc([N+](=O)[O-])ccc2N2CCOCC2)c(C)c1,2.44,"10.3 µM [rising, partial curve]",
OCCN1CCN(CC#CCn2c3ccccc3c3ccccc32)CC1,0.471,"0.206 µM [falling, full curve]",
COc1cccc(N2CCN(C(=O)CN3C(=O)NC(C)(c4ccc5ccccc5c4)C3=O)CC2)c1 (configuration not stated),-3.63,"7.31 µM [falling, single point]",
Cc1cc(Cl)ccc1OC(C)C(=O)Nc1ccc([N+](=O)[O-])cn1 (configuration not stated),0.322,"0.103 µM [falling, full curve, poor fit]",
O=c1cc(-c2ccccc2)nc2nc(COc3ccccc3)[nH]n12,44.1,,"14.6 µM [rising, single point]"

# Looked up above.
# In AC50 [2], `Cc1ccc(NC(=O)CCc2nc3ccccc3s2)c(O)c1` shows 0.00461 µM [rising, full curve, poor fit]
# In AC50 [1], `Cc1sc2nc(CN3CCCC3)nc(N3CCN(C(=O)c4ccco4)CC3)c2c1C` shows 1.84 µM [rising, single point]
# In AC50 [1], `Cc1nc(/N=C(\N)NC(=O)N2c3ccccc3Sc3ccccc32)nc2ccccc12` shows 0.461 µM [rising, single point]

# More entries follow:

Structure (SMILES),cell number change [%],AC50 [1],AC50 [2]
Cc1ccc(NC(=S)NCCO)c(C)c1,-68.3,"18.4 µM [falling, partial curve]","16.4 µM [falling, single point]"
O=C(NCC1CCCO1)c1ccc(-c2ccccc2Cl)o1 (configuration not stated),82.5,,"16.4 µM [rising, partial curve, poor fit]"
Cc1ccc(S(=O)(=O)NC(C(=O)Oc2ccc3ccc(=O)oc3c2)c2ccccc2)cc1 (configuration not stated),-3.1,"7.31 µM [rising, partial curve]","4.11 µM [rising, single point]"
O=C1CCCN1c1ccc(S(=O)(=O)N2CCN(c3ccccn3)CC2)cc1,,"1.84 µM [rising, partial curve]","0.82 µM [rising, full curve]"
O=C(CCc1nnc2n(Cc3ccc(Cl)cc3)c(=O)c3ccccc3n12)NCCN1CCCC1,1.15,,
CC(=O)OC1=C(C#N)Cn2ccc3cccc1c32,,"6.51 µM [rising, single point]","1.3 µM [falling, full curve]"
CC1CCCN(C(=O)C(C)Sc2nc(-c3ccccc3)cc(C(F)(F)F)n2)C1 (configuration not stated),-49.5,"3.26 µM [rising, partial curve]",
CCCSc1nnc2[nH]c(=O)cc(N)n12,22.1,"8.2 µM [rising, partial curve]",
O=C(OCC(=O)N1CCOCC1)c1cc(S(=O)(=O)N2CCOCC2)c(Cl)cc1Cl,-51.6,,"0.231 µM [falling, full curve]"
Cc1ccc(C)n1-c1ccc(NC(=O)c2ccccc2)cc1,16.5,"14.6 µM [rising, single point]",
CC(CCN1C(N(C)C)=NC[C@@H]1C)c1ccccc1 (some centres not stated),12.4,,
O=C(O)c1ccc2c(c1)C(=O)N([C@H](Cc1cccc3ccccc13)C(=O)O)C2=O,-1.35,"18.4 µM [rising, partial curve]",
CCOC(=O)Cc1csc(SCC(=O)NC2CCCC2)n1,-33.7,,"0.103 µM [falling, full curve, poor fit]"
Cc1ccc(CS(=O)Cc2ccc(C(=O)NCc3ccc(OC(C)C)cc3)o2)cc1 (configuration not stated),-4.62,"0.411 µM [falling, partial curve, poor fit]",
O=C(CSCc1cccc(Cl)c1)N/N=C/c1ccc(OCC(=O)N2CCCCC2)cc1,-1.44,"18.4 µM [falling, single point]",
CCOc1ccc(S(=O)(=O)NC2CC2)cc1,-5.47,"4.61 µM [rising, full curve]",
COC(=O)c1cc(=O)n(Cc2ccc3c(c2)OCO3)c(=Nc2ccc(F)c(Cl)c2)s1,15.2,,"0.517 µM [rising, full curve, poor fit]"
O=C(NC1CCN(S(=O)(=O)c2ccc(F)cc2)CC1)c1ccc(F)cc1,-10.5,"20.6 µM [rising, single point]",
CC[C@H](C)C(C(=O)N1CCN(C(=O)OC(C)(C)C)CC1)n1cc(C(Cc2ccc(O)cc2)NC(=O)OC(C)(C)C)nn1 (some centres not stated),-18.3,"29.1 µM [falling, single point]",
CC(=O)C(C(c1ccccc1)c1c[nH]c2ccccc12)[N+](=O)[O-] (configuration not stated),-33.7,"29.1 µM [falling, single point]","32.6 µM [falling, single point]"

Structure (SMILES),cell number change [%],AC50 [1],AC50 [2]
COc1cc(Nc2ccc(S(N)(=O)=O)cc2)c([N+](=O)[O-])nc1[N+](=O)[O-],5.84,,
CC(=O)C1C(c2cccc([N+](=O)[O-])c2)C2C(C)=NN=C2CC1(C)O (configuration not stated),6.91,,
COc1ccc(CCC(=O)NCc2ccccc2Cl)cc1OC,20.4,"0.291 µM [rising, full curve, poor fit]",
CC(OC(=O)CNC(=O)c1ccc(Br)cc1)C(=O)NC1CCCCC1C (configuration not stated),-0.413,"0.411 µM [rising, full curve, poor fit]",
O=C(CSc1ncnc2c1cnn2Cc1ccccc1)Nc1ccc2c(c1)OCCO2,,,"6.51 µM [rising, single point]"
O=C(NCc1ccc2c(c1)OCO2)c1cc(S(=O)(=O)N2CCCCC2)ccc1F,-25.4,,
O=C(NCC(c1ccco1)N1CCc2ccccc2C1)C(=O)Nc1ccccc1F (configuration not stated),1.01,,"3.66 µM [rising, single point]"
CCCn1ncc(C(=O)N(C)C2CCCN(Cc3ccccc3F)C2)c1C (configuration not stated),1.13,"5.17 µM [falling, single point]",
Cc1oncc1C(=O)NC1CCCCC1,-5.88,"0.411 µM [falling, single point]",
O=C(CCS(=O)(=O)c1ccccc1)Nc1ccc(N2CCN(Cc3ccccc3)CC2)cc1,-13.7,"0.58 µM [rising, single point]",
O=[N+]([O-])c1ccc(Cn2cc(-c3cccc(C(F)(F)F)c3)nn2)cc1,9.28,"18.4 µM [falling, single point]",
CC(=O)/C=C(\C)NCCNc1c(F)c(F)c(CO)c(F)c1F,6.75,"0.82 µM [rising, full curve, poor fit]",
Cc1cc(C)nc(SCC(=O)Nc2ccc(S(=O)(=O)Nc3onc(C)c3C)cc2)n1,,"4.11 µM [falling, single point]",
O=C(Nc1ccc(Cl)cn1)Nc1cccs1,-15.2,"4.11 µM [rising, single point]",
COC(=O)c1ccc(Nc2ncnc3c2cnn3-c2cccc(C)c2)cc1,16.2,"0.651 µM [falling, full curve, poor fit]",
COc1ccc2cc([C@H](C)C(=O)N(C)Cc3ccccc3N3CCCC3)ccc2c1,79,,"18.4 µM [rising, partial curve, poor fit]"
CN(CC(=O)Nc1ccc(Cl)c(C(F)(F)F)c1)C(=O)CNC(=O)C1CCCCC1,-1.72,"0.00517 µM [falling, full curve, poor fit]",
COc1c([N+](=O)[O-])c(=O)n(-c2ccccc2)c2ccccc12,-5.43,"23.1 µM [rising, single point]","0.00517 µM [falling, full curve, poor fit]"
COc1ccc(OCc2nn3c(Cn4cnc5ccccc54)nnc3s2)cc1,-18.2,"18.4 µM [rising, single point]",
